The results in this text go back to patent US20230201173A1, “SMAD4 Complex Inducers and Uses in Cancer Therapy” (Emory University, priority 2021, published 2023).

Substitutions are numbered along the chain they refer to. Results are given in words; binding and its absence hold for the method and conditions named. For part of these data: Binding seen in cells or lysates may run through a third protein. Some entries that bind do so weakly or less than the wild type. Where a sequence is shown, tags or fusion partners need not be part of it.

Common to all, as to settings: remark: other sources report otherwise
One assay has as its target Flag-SMAD3, P84022. Put plainly: TR-FRET, HEK293T cell lysate, anti-Flag-Tb donor / anti-His-D2 acceptor. In general terms: Time-resolved FRET reads energy transfer from a long-lived donor to a nearby acceptor.
Assay [1] addresses SMAD3 (prey in the GST pull-down), P84022. Briefly: GST beads pull-down from cell lysate.
For a further assay, the target named is SMAD2, Q15796. Briefly: TR-FRET with compound titration (Ro-31-8220, Go-6983).

B1: His-SMAD4WT, Q13485 1-552 (protein, not shown: small tags and cut ends)
chain: MDNMSITNTPTSNDACLSIVHSLMCHRQGGESETFAKRAIESLVKKLKEKKDELDSLITAITTNGAHPSKCVTIQRTLDGRLQVAGRKGFPHVIYARLWRWPDLHKNELKHVKYCQYAFDLKCDSVCVNPYHYERVVSPGIDLSGLTLQSNAPSSMMVKDEYVHDFEGQPSLSTEGHSIQTIQHPPSNRASTETYSTPALLAPSESNATSTANFPNIPVASTSQPASILGGSHSEGLLQIASGPQPGQQQNGFTGQPATYHHNSTTTWTGSRTAPYTPNLPHHQNGHLQHHPPMPPHPGHYWPVHNELAFQPPISNHPAPEYWCSIAYFEMDVQVGETFKVPSSCPIVTVDGYVDPSGGDRFCLGQLSNVHRTEAIERARLHIGKGVQLECKGEGDVWVRCLSDHAVFVQSYYLDREAGRAPGDAVHKIYPSAYIKVFDLRQCHRQMQQQAATAQAAAAAQAAAVAGNIPGPGSVGGIAPAISLSAAAGIGVDDLRRLCILRMSFVKGWGPDYPRQSIKETPCWIEIHLHRALQLLDEVLHTMPIADPQPLD
For B1, the binding result with Flag-SMAD3, P84022 is on record as “binds”.

B2: GST-SMAD4WT, Q13485 1-552 (protein, not shown: a dimerising Fc or GST)
chain: B1 chain
Regarding B2, in assay [1], the binding entry is on record as “binds”.

B3: His-SMAD4R361H, Q13485 1-552 (protein, not shown: small tags and cut ends)
chain: B1 chain with R361H
As to B3, the binding result with SMAD2, Q15796 was “binds”.
